Reference: publication PMC6116281

Sequences of proteins named here, by UniProt entry; tags and fusion partners are left off. A change or cut given only in a name is not applied to a line headed by its entry.
UniProt P24814: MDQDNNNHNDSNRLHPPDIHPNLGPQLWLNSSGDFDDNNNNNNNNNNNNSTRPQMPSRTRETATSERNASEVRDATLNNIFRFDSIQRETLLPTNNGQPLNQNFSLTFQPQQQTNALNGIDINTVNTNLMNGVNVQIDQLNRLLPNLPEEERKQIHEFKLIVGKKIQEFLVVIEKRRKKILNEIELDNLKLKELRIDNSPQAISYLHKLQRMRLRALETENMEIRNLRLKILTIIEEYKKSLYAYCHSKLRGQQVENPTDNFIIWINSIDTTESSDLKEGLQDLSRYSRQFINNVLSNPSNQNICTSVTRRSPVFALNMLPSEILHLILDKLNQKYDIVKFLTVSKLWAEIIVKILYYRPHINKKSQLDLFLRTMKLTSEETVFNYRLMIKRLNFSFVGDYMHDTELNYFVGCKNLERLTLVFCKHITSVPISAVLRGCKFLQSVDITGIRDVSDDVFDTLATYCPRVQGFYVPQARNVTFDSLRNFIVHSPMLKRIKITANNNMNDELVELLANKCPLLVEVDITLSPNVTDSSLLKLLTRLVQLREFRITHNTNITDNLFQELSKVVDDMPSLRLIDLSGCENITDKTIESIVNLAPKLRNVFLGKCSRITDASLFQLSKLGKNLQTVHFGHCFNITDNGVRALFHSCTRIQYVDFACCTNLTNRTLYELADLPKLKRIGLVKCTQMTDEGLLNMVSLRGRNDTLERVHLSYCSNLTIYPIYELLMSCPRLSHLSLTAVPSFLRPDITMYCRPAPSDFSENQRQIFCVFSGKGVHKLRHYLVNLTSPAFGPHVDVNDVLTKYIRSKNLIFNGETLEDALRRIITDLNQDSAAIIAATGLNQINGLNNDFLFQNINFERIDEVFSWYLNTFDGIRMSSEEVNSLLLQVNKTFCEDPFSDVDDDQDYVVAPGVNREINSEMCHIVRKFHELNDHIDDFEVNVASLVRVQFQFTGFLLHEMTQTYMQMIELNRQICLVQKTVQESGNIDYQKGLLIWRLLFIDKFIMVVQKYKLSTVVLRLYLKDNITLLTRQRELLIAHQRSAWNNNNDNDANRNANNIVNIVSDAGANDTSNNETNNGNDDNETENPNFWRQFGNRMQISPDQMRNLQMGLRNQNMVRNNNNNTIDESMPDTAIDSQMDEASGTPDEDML

Target: grr1∆F∆L mutant, Gal4 binding domain bait (S. cerevisiae) (UniProt P24814)
Assay: two-hybrid; Gal4 yeast two-hybrid in PJ69-4a cells; Med13 fragment on the Gal4 activating domain (prey), bait on the binding domain; growth on -TRP, -LEU, -HIS, -ADE medium (dual HIS3 and ADE2 reporter genes)

B1: Gal4 activating domain Med13^571-650 fusion protein (domain or fragment, UniProt P38931 571-650)
chain: KRKYLDIPIDEMTLPTSPLYMDPGAPLPVETPRDRRKSVFAPLNFNPIIENNVDNKYKSGGKFSFSPLQKEEALNFDISM
binding: no binding

No constants are given. Whether binding was seen depends on the method and setting. Sequences can lack the tags named with a protein.
